Assay in all cases: ectopic mistargeting to mitochondria (Tom20-GBP); mEGFP-, GFP- or mECitrine-tagged protein 1 mistargeted to mitochondria by Tom20 tagged with GFP-binding protein (GBP) nanobody in live S. pombe cells; recruitment of tdTomato-, mCherry- or RFP-tagged protein 2 to mitochondria seen by confocal microscopy
In experiment [1] the target is T1, 3nmt1-mECitrine-Ync13 (S. pombe) (UniProt O13683).
T1 sequence: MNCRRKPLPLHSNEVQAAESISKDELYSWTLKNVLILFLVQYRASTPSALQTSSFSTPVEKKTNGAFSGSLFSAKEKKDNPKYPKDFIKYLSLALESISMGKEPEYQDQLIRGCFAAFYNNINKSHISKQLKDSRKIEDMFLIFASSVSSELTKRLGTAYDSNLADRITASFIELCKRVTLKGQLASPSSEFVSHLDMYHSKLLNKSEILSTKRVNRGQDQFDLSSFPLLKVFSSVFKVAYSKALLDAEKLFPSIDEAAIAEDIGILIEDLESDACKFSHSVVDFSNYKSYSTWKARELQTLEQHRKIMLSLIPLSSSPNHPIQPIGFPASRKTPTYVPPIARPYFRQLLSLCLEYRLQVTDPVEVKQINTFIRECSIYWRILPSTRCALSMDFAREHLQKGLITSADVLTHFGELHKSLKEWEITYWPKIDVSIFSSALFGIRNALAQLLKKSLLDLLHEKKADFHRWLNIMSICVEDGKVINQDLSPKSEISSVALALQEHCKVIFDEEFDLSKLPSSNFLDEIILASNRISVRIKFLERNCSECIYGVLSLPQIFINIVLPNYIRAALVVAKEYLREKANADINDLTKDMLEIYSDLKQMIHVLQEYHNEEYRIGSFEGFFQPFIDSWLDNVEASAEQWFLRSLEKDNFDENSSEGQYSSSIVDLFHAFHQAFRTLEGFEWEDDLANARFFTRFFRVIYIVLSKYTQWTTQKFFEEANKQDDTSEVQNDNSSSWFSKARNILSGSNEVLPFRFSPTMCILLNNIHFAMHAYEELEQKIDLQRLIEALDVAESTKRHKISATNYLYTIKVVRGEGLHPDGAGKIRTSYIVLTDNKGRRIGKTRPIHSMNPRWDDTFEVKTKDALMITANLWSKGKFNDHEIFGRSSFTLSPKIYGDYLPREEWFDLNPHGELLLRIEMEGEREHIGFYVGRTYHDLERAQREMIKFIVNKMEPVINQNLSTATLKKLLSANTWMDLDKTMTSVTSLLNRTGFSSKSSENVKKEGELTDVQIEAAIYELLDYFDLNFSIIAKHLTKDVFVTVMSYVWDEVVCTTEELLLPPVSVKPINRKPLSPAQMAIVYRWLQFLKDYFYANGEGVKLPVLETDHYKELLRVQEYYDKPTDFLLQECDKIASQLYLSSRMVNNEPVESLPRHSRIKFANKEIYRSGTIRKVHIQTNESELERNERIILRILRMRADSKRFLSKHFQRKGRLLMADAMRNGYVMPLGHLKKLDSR

Another experiment addresses T2, Rga7-mEGFP (S. pombe) (UniProt O94466).
T2 sequence: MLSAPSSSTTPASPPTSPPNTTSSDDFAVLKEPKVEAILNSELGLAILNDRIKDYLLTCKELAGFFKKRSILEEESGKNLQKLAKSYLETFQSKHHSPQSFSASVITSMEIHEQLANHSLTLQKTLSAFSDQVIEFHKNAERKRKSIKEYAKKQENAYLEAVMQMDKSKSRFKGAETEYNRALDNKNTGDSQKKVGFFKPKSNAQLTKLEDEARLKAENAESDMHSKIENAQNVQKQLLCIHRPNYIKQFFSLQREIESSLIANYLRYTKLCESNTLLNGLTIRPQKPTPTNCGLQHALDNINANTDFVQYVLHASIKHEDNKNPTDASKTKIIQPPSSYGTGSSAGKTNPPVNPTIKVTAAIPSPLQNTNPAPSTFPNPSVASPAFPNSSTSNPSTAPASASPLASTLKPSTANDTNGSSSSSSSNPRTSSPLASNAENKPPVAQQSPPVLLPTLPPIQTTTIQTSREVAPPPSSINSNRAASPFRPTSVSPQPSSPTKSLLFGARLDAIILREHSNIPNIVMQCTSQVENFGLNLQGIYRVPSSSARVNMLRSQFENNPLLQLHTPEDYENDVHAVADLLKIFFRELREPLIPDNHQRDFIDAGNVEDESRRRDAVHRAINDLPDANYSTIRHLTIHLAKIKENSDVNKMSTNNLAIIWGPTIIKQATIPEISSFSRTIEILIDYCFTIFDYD

A further experiment has as its target T3, Rng10-mEGFP (S. pombe) (UniProt Q9P6L9).
T3 sequence: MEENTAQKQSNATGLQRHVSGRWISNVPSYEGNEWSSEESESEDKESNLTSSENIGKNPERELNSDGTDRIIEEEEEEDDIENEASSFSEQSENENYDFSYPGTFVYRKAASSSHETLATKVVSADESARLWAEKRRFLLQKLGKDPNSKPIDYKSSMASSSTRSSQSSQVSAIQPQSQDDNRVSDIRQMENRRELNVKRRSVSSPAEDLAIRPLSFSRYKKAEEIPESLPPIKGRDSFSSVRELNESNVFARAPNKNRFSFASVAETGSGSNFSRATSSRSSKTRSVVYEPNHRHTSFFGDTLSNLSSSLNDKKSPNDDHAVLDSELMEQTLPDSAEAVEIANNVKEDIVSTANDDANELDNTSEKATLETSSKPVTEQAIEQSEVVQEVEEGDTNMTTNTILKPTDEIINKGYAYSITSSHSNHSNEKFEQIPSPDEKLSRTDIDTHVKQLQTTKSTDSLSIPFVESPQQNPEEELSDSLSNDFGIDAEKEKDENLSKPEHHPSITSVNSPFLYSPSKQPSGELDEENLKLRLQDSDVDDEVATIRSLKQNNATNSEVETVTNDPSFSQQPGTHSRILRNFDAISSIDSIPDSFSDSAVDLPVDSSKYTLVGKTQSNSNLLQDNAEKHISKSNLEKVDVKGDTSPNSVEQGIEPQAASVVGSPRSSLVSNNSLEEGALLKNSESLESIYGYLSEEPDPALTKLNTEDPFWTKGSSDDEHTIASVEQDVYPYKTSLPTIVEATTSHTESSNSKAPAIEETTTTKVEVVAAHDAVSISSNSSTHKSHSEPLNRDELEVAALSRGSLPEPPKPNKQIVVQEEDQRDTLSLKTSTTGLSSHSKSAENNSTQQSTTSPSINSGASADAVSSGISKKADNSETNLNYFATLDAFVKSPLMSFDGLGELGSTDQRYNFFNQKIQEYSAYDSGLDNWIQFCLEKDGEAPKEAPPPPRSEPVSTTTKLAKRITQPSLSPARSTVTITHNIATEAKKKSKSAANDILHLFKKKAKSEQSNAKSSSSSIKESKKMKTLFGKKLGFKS

Experiment [2] deals with Rga7(ΔF-BAR)-mEGFP (S. pombe).

No constants are given. Whether binding was seen depends on the method and setting. For some assays here: A result given as binding can be weak or reduced; the word gives no strength. For some assays here: Tags and fused reporters may be left off the sequences shown.

Regarding Ede1-mCherry (S. pombe), the binding result in experiment [1] was “no binding”.

For the molecule Sec3-mCherry (S. pombe), the binding entry in experiment [1] is “no binding”.

As to Sec3-tdTomato (S. pombe), the binding result with Rga7-mEGFP (S. pombe) and with Rng10-mEGFP (S. pombe) was “no binding” throughout.

B1: Ync13-tdTomato (protein, UniProt O13683 1-1237)
chain: T1 sequence
For B1, in experiment [2], the binding result is on record as “binds”.

These data come from doi:10.1101/2025.05.13.653810, “Spatial control of secretory vesicle targeting by the Ync13–Rga7–Rng10 complex during cytokinesis” (bioRxiv, 2025).
